Library screen at single concentrations

Amino acid sequences for entries named in this document (tags omitted). Residues count along the entry.
UniProt Q8IDJ8, 1-583: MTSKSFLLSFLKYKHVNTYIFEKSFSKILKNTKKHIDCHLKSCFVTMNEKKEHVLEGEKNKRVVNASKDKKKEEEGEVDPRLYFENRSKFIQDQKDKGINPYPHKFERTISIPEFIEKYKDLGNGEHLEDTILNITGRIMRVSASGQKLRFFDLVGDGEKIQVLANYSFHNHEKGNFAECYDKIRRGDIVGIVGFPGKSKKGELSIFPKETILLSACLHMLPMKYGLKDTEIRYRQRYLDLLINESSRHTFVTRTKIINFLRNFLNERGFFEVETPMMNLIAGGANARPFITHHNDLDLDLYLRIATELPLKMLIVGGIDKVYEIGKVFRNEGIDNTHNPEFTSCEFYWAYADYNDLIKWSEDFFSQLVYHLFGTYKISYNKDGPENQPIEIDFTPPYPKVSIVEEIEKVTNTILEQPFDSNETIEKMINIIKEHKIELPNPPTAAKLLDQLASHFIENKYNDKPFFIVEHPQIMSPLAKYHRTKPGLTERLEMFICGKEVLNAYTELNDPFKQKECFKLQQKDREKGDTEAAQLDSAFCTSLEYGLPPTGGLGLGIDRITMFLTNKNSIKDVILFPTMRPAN
UniProt P9WFT3, whole entry: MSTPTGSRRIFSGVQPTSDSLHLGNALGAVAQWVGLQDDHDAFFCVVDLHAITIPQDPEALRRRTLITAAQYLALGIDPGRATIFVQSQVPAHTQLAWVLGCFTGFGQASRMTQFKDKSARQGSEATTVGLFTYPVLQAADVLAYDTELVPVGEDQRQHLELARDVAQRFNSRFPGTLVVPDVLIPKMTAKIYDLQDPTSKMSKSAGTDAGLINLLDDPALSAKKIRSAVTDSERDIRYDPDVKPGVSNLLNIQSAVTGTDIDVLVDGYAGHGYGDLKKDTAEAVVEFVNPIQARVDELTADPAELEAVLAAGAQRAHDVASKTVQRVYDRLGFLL
UniProt P9WPC5, whole entry: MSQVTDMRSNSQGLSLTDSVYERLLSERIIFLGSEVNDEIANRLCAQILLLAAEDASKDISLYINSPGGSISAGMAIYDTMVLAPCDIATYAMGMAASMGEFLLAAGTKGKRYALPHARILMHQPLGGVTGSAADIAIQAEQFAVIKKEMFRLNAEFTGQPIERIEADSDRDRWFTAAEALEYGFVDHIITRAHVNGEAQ
UniProt P9WPC3, whole entry partner: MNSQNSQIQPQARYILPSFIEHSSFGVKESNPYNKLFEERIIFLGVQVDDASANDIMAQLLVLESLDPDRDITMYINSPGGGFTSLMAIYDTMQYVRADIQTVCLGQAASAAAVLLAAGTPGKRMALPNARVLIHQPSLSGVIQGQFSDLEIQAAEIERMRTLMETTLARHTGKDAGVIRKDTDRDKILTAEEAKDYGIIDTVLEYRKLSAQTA

A: 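Lysine-tRNA ligase, Plasmodium falciparum 3D7 (UniProt Q8IDJ8). Enzyme assay of the cytosolic lysyl-tRNA synthetase in 384-well plates, read by luminescence. Tested at 30 µM. Direction is inferred from only a few compounds that gave an IC50; most scored high, so higher reads as stronger inhibition. About 69,000 compounds were tested under these conditions; 0.071% (about 49) showed 50% or more at least once.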
B: 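Tryptophan-tRNA ligase, Mycobacterium tuberculosis (UniProt P9WFT3). Enzyme assay of tryptophanyl-tRNA synthetase; the read-out is not stated. Concentration: 10 µM. Direction is not recorded; retested compounds ran higher, which suggests that high means inhibition. Size under these conditions: about 65,000 compounds, about 64 of them at 50% or above in at least one test.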
C: 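Protease assay of ClpP1P2, read by the AMC dye that it sets free. Target: ClpP1P2, Mycobacterium tuberculosis (UniProt P9WPC5 and UniProt P9WPC3). Concentration: 50 µM. Higher reads as stronger inhibition, judged from the few compounds that gave an IC50. Most other retested compounds had strongly negative values. About 69,000 compounds were tested under these conditions; 0.015% (about 10) showed 50% or more at least once.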

The filed quantity is “Percent Effect” (%).
The controls that fix the scale are not given in the record; negative values are as filed.
Compounds were drawn at random from those tested, without regard to their results.
A dash means the value is not listed here; it may have been measured.

Compound,A,B,C
COc1ccc(CC(=O)Nc2ccc3ncn(C(C)C)c(=O)c3c2)cc1,1.351%,0.7282%,-4.361%
CC(NC(=O)N1CCS(=O)(=O)CC1)c1c(F)cccc1Cl (stereo not given),3.338%,1.713%,3.658%
Cc1ccc2nc(C)c(C)c(C(=O)NCCCn3cnnc3)c2c1,6.94%,-1.887%,1.65%
Cn1ccc(NC(=O)CN2C[C@H]3CC[C@@H]2CN(S(C)(=O)=O)C3)n1,-2.719%,-0.4968%,-13.95%
COc1c(C)cnc(CN2CCOC(Cn3nc(C)nc3C)C2)c1C (stereo not given),2.24%,2.754%,-6.782%
Cc1cc(NS(=O)(=O)CC2CCCCO2)ccc1F (stereo not given),5.298%,-3.707%,-9.892%
CCOc1ccc(S(=O)(=O)N(CCOC)Cc2ccncc2)cc1F,0.8823%,0.297%,-12.07%
CC(C)CS(=O)(=O)N1C[C@H]2C[C@H](C(=O)Nc3cccnc3)[C@@H](C1)O2,-0.9565%,-0.2766%,-3.786%
O=C(NCc1ccco1)[C@@]12CCO[C@@H]1CCN(CC1CCOCC1)C2,2.56%,1.465%,-6.279%
O=S(=O)(CCCn1cncn1)Cc1ccc(F)cc1Cl,13.03%,12.16%,10.49%
CCC(O)CN(Cc1cccc(C(=O)N(C)C)c1)c1ccccc1 (stereo not given),5.211%,0.289%,-2.333%
CCNC(=O)N(C)C(c1cccc(F)c1)c1ccccn1 (stereo not given),0.5217%,2.798%,9.022%
CN(C)C(=O)CCC1CCCN(Cc2cccc(-c3ccccn3)c2)C1 (stereo not given),1.686%,11.51%,9.088%
c1cnn(CC2CN(c3ncnc4ccsc34)CCO2)c1 (stereo not given),2.493%,3.565%,0.07551%
CS(=O)(=O)NCc1cnc2n1CCN(Cc1cccnc1)CC2,4.238%,-1.051%,-15.6%
O=S(=O)(c1ccc(F)cc1Cl)N1CCCC1c1ccncc1 (stereo not given),-1.009%,1.161%,11.97%
Cn1cc(C(=O)N[C@@H]2CN(CC3CCOCC3)[C@@H]3CCCO[C@@H]32)cn1,3.796%,5.533%,-2.844%
Cn1cc(CCCNC(=O)NC2CCN(c3ccccc3)C2=O)cn1 (stereo not given),1.617%,-2.023%,-4.865%
N#CC1(C(=O)N2C[C@H](Nc3ccnc(N)n3)[C@@H](C3CC3)C2)CCOCC1,0.06859%,-2.202%,-4.331%
Cc1ccc(-c2noc(CCC(=O)NC(C)Cn3cccn3)n2)cc1 (stereo not given),4.045%,-4.092%,-5.642%
O=C(c1ccc(Cn2ccccc2=O)o1)N1CCSCC1,-0.8436%,-0.1935%,-13.22%
CCc1ncc2c(n1)CN(CC(=O)Nc1cc(C)no1)CC2,2.287%,-8.164%,-35.15%
Cc1ccc(CN2CCC3(CC2)OC(C(=O)N(C)C)c2ccccc23)o1 (stereo not given),7.335%,3.417%,-3.565%
COCCn1ccc(NC(=O)Nc2ccccn2)n1,-5.02%,-3.627%,-6.52%
CC(=O)N1CCCC(C(=O)N2CCC(=Cc3cccc(F)c3)CC2)C1 (stereo not given),-4.436%,-5.048%,-17.09%
Cc1noc(C)c1S(=O)(=O)NC(=O)COc1cccc(C(C)C)c1,1.278%,1.203%,-9.622%
O=c1c2cc3c(cc2nnn1Cc1ccccc1)OCCO3,9.467%,-1.018%,-16.44%
COc1ccnc(N2CCN(C(=O)Cc3ccc(C#N)cc3)CC2)n1,8.038%,-2.737%,3.865%
O=C1OCCN1CC(=O)N1C[C@H]2CC[C@@H]1CN(C(=O)c1cccnc1)C2,5.035%,-1.343%,-6.837%
O=C1CC2(CCN(C(=O)c3ccccn3)CC2)Oc2c(Cl)cc(Cl)cc21,1.973%,-,-3.991%
CCOCc1ncn2c1CN(C(=O)Nc1cccc(C)c1)CC2,12.85%,3.002%,6.612%
Cc1ccccc1CN(Cc1ccncc1)CC(C)C,5.035%,2.519%,-12%
CNC(=O)CN1CCOCC12CCN(Cc1ccncc1)CC2,-1.199%,0.5533%,-10.09%
O=C(c1cncnc1)N1CCCC(c2nccs2)C1 (stereo not given),0.09966%,0.1302%,-0.592%
Cc1nc2c(c(NCCc3nc(C)c(Cl)s3)n1)CCNCC2,2.852%,1.013%,-15.04%
Cc1cc(CN2CCC(N(C)Cc3nnc(C4CC4)n3C)C2)on1 (stereo not given),0.32%,-5.267%,-15.4%
Cn1ccc(C(=O)NCCOc2ccc(C(C)(C)C)cc2)cc1=O,1.228%,-3.612%,9.958%
Cc1cccnc1NC(=O)c1ccc(-n2cncn2)nn1,3.927%,-4.483%,0.501%
Cc1nc[nH]c1-c1nccn1-c1cccc(CN2CCCC2)c1,-5.19%,8.35%,-8.389%
c1cnn(CC2CCCCN2Cc2nc(-c3ccsc3)no2)c1 (stereo not given),1.04%,-4.231%,-20.46%
Cc1nsc(NC2CC(=O)N(C(C)(C)C)C2)n1 (stereo not given),-1.948%,7.714%,-7.851%
CC1CCN(C)c2ccccc2N1C(=O)c1ccn(C)c(=O)c1 (stereo not given),0.7703%,-1.238%,5.794%
COCC1c2nnn(CC3CC3)c2CCN1C(=O)c1cc(C)[nH]c1C (stereo not given),2.706%,-2.974%,3.967%
COC(=O)C1(NCC(=O)Nc2cc(C)ccc2OC)CCCCC1,8.778%,-2.77%,0.976%
Cc1cnc(-c2nc(C3CCCN(Cc4cccs4)C3)no2)cn1 (stereo not given),-0.5695%,0%,17.87%
COc1ccc(C(=O)N2Cc3cc(C)ccc3OCC2CN(C)C)cc1 (stereo not given),3.925%,-,-9.433%
Cc1c(S(=O)(=O)NCC(C)C)cnn1C,5.963%,2.419%,-20.11%
CC(C)=CCCC1(C)CCC(=O)N(CCNc2nc(C)cc(=O)[nH]2)C1 (stereo not given),5.58%,6.223%,-7.261%
Cc1cc(C)n(NC(=O)c2cccc3c2OCC3)c(=O)c1,1.357%,-2.991%,-2.892%
COc1ccnc(N2CCN(C(=O)c3cscn3)CC2)n1,0.2113%,6.245%,3.44%
COc1ccc(CN(C)Cc2c(C)noc2C)c(Cl)c1OC,-0.5271%,-2.78%,-8.52%
Cc1ccc(C)c(OC2CCN(C(=O)c3ccc(C)[nH]c3=O)CC2)c1,0.1819%,-4.56%,8.701%
CC(=O)NC(C(=O)N(C)Cc1nnc2n1CCC2)C(C)C (stereo not given),-0.04924%,0.7064%,17.16%
CC(CC(=O)NCCS(N)(=O)=O)C1CCCCC1 (stereo not given),-0.3154%,2.973%,-10.73%
Cc1cnn(CC2CCCN2C(=O)c2cccc3[nH]ncc23)c1 (stereo not given),0.2943%,-0.4838%,-20.61%
Cc1cnn(CCNC(C)C(=O)NCCc2cccs2)c1 (stereo not given),-0.1477%,8.779%,2.458%
Clc1cc(CN2CCCCC2Cn2cncn2)c2ncccc2c1 (stereo not given),1.262%,2.225%,-36.7%
CN(C)CC(=O)N1CCC2(CC1)CN(c1ncccn1)CCO2,-1.547%,-0.5307%,-8.905%
Cc1noc(C)c1CC(=O)N1CCCC(n2ccnc2C)C1 (stereo not given),2.141%,0.6121%,-9.725%
CN(CC(=O)Nc1nncs1)CC1CCCN1c1cccnn1 (stereo not given),4.384%,7.497%,-1.496%
Cc1cc(C)c(C(=O)NC(c2nnc3n2CCNCC3)C(C)C)c(C)c1 (stereo not given),3.122%,2.534%,-12.22%

Some entries from above, unchanged:

| Compound | A | B | C |
|---|---|---|---|
| `COc1ccc(CN(C)Cc2c(C)noc2C)c(Cl)c1OC` | -0.5271% | -2.78% | -8.52% |
| `O=S(=O)(CCCn1cncn1)Cc1ccc(F)cc1Cl` | 13.03% | 12.16% | 10.49% |
| `Cc1cnn(CC2CCCN2C(=O)c2cccc3[nH]ncc23)c1` (stereo not given) | 0.2943% | -0.4838% | -20.61% |
| `O=C(c1ccc(Cn2ccccc2=O)o1)N1CCSCC1` | -0.8436% | -0.1935% | -13.22% |
| `Cc1cc(C)n(NC(=O)c2cccc3c2OCC3)c(=O)c1` | 1.357% | -2.991% | -2.892% |
| `CCOc1ccc(S(=O)(=O)N(CCOC)Cc2ccncc2)cc1F` | 0.8823% | 0.297% | -12.07% |
| `CCOCc1ncn2c1CN(C(=O)Nc1cccc(C)c1)CC2` | 12.85% | 3.002% | 6.612% |

From ChEMBL document CHEMBL3988442, “University of Dundee, Small-Polar-MMV Screening Library” (2021).